Experimental data from patent US20250326720A1, “CAREBASTINE SALT AND USE OF SAME” (priority 2022, published 2025).
Read-outs that look alike come from different tables or passages of the source.

Tests used:
[1] = system: histamine-induced shock in guinea pigs; test: Histamine-induced shock test in guinea pigs; format: in vivo; conditions: gavage, equimolar to 1.00 mg/kg ebastine, histamine phosphate i.v. one hour after administration, x ± s, n = 10
Description: One hour after administration, 0.125 wt. % histamine phosphate saline solution was injected intravenously into lateral sides of hind paws of the guinea pigs at 2 ml/kg. After the injection was completed within 10 s, a stopwatch was used immediately to observe the latency period for the guinea pigs to develop accelerated respiration and collapse with convulsions.

KM mice = conditions: for Mortality rate of mice / Number of surviving mice: single intragastric, 14 days observation; for Number of surviving mice: 10 mice per group
Description: All drugs were administered by intragastric administration, and the blank control group was administered with an equal volume of 0.5% CMC-Na solution. All animals were fasted for 12 hours before administration, but were allowed to drink water freely.
After administration, the mice were kept and observed for 14 days, and the toxic reactions (such as death) of the mice were observed and recorded every day. After the observation period, all surviving animals were dissected to observe whether there were obvious lesions in each organ.

[2] = high dose (equimolar to 5 g/kg ebastine)
[3] = low dose (equimolar to 2.5 g/kg ebastine)

## CC(C)(C)c1ccc(C(=O)CCCN2CCC(OC(c3ccccc3)c3ccccc3)CC2)cc1 [Comparative Example 1, ebastine]
[1]
  Time of accelerated respiration: 151 ± 19.97 ^ s
KM mice; [2]
  Mortality rate of mice: 60%
  Number of surviving mice: 4
KM mice; [3]
  Mortality rate of mice: 0
  Number of surviving mice: 10
KM mice; mouse, in vivo
  abnormalities during observation period and in gross anatomical observation: no obvious abnormalities were observed
